Measured values from patent publication US8853213B2, “Bicyclic compound for modulating G protein-coupled receptors” (Hanmi Pharm. Co., Ltd, priority 2011, dated 2014).
The match of structure and compound is tentative.

The chains behind the UniProt entries cited, without tags or fusion partners.
UniProt Q8TDV5, whole entry: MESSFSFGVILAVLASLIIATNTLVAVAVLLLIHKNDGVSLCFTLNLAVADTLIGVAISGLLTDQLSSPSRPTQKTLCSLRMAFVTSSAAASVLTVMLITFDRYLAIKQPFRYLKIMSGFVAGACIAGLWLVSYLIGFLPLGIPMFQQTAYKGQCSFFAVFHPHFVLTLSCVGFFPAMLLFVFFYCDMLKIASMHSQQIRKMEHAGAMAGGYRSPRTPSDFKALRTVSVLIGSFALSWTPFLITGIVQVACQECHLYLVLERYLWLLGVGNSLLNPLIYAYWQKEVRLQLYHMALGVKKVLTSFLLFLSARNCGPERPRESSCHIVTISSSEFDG

Molecular target: GPR119 (Homo sapiens, UniProt Q8TDV5)
Experiment: Controlling Effect of GPR119 in CRE-bla CHO-K1 Cells (EC50)
Details: read-out: controlling effect against GPR119 in CRE-bla CHO-K1 cell line (EC50), 5 hr incubation with compound, β-lactamase LiveBLAzer-FRET B/G readout
Method: Controlling Effect of GPR119 in CRE-bla CHO-K1 Cells (EC50)
The day before the experiment, GPR119 CRE-bla CHO-K1 cell line purchased from Invitrogen was seeded in a 96 black well plate in an amount of 80 μl at a density of 5×10^4 cells. After the seeding, 10 μl of doxycycline in a concentration of 1 μg/ml was added to each well and incubated in an incubator at 37° C. under 5% CO2 for about 16 to 20 hr.
The day of experiment, sample compounds were performed a 10-fold serial dilution with a culture medium at various concentrations of 1 uM to […]. Considering that the culture medium used in the seeding and doxycycline are together applied, the sample compounds were diluted to a 5-fold dilution of the planned concentration. 20 μl of the compound diluted with the culture medium was added to each well and incubated in the incubator for 5 hr. The compound-untreated group was added with 20 μl of 0.5% dimethyl sulfoxide (DMSO) diluted with the culture medium. […] Fluorescence intensity value of blue channel and green channel was determined by a fluorescence microplate reader at 409 nm/460 nm and 409 nm/[…] (excitation/emission), respectively. In order to confirm the controlling effect of the inventive compounds against GPR119, EC50 (half maximal effective concentration) was determined based on the determined values. […]

CC(C)c1nc(N2CCC(N(C)c3ncnc4c(-c5ccc(S(C)(=O)=O)cc5)csc34)CC2)no1
EC50: 100 to 1000 nM
